Measured values reported in PubChem BioAssay.
Only a part is listed here, and it is no random draw. The source made the active and inactive calls.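 The calls were made as follows: active = inhibition reaching about 45% at 4 µM in either replicate (limit read from the data); inactive = the rest.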

Experiment: PMA/ionomycin-induced NF-kB reporter inhibitors, Jurkat retest, confirmation, T-cell NF-kB inhibitor project, cell-based, luminescence, single concentration (AID 435020);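 also: plate controls were PMA/ionomycin stimulated DMSO wells for no effect and unstimulated DMSO wells for full effect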
Conditions: Jurkat NF-kB luciferase, 16 h, at 4 µM, stronger effect = higher value

CN[C@H]1C[C@H]2O[C@@](C)([C@H]1OC)n1c3ccccc3c3c4c(c5c6ccccc6n2c5c31)C(=O)NC4
inhibition: active: 99.9%
